{
  "sequences": {"note": "Protein sequences, listed by entry. Tags and fused reporters are not part of them.", "UniProt P16473, whole entry, looked up": "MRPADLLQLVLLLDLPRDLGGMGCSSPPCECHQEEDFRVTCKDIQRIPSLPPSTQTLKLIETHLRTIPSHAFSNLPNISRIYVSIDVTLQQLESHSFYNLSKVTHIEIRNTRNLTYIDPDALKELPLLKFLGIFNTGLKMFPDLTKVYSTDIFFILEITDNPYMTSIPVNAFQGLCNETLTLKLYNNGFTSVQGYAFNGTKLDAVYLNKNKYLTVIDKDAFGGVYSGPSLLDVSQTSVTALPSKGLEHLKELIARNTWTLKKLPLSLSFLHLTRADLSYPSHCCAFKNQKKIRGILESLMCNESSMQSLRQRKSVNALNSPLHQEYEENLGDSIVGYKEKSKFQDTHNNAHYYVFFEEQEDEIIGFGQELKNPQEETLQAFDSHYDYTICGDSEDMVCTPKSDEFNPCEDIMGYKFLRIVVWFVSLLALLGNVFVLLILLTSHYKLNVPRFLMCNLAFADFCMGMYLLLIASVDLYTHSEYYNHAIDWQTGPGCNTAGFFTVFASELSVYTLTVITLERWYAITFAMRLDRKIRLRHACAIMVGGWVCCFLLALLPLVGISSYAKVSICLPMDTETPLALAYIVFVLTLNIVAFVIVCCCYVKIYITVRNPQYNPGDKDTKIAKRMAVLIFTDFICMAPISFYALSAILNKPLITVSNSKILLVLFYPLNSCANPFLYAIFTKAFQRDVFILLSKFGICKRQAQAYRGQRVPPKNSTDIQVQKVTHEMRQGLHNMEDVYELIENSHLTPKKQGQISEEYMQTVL"},
  "source": "PubChem BioAssay AID933",
  "about": "(National Center for Advancing Translational Sciences (NCATS), 2007)",
  "note": "“And” between values parts separate entries of the source, which are not always exact repeats. Identical values can stand only once. This list was built around the results that the source calls inconclusive (neither active nor inactive); the mix of calls is not that of the screen. A potency beside an inconclusive call is a rough fit, not a confirmed value. A note “side channel” means that the fit belongs to a control or component signal, not to the main read-out. The source made the active and inactive calls. Calls follow the shape of the dose curve; as a rule, active = well fitted activation curve with a large enough effect in the signal ratio, with a control signal flat; inconclusive = small, poorly fitted or top-dose-only effect, or a change in a side signal; inactive = flat fitted curve, though single readings scatter; the % refers to the signal ratio. Potency is read from the fitted curve at half-maximal effect.",
  "data": [
    {"target": "Thyrotropin receptor (Homo sapiens) (UniProt P16473)", "experiment": "Secondary Concentration-Response Assay for Agonists of the Thyroid Stimulating Hormone Receptor: HTRF Activity Detection;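 as to activation: HEK 293 cells stably expressing human TSHR with RO 20-1724 phosphodiesterase inhibitor; % of control where 0% means no effect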", "conditions": "HEK293-TSHR cells, cAMP HTRF ratio, 30 min; series mostly up to 91.7 µM; activation: at the top concentration", "outline": "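Orthogonal confirmation in a separate TSHR-transfected HEK 293 line: cells in medium with 10 % FCS and 100 uM RO 20-1724 got compound for 30 min at room temperature. cAMP was measured by HTRF (d2-cAMP/anti-cAMP antibody), 615/660 nm emission.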", "values": [
      {"smiles": "COc1ccc(CN(Cc2ccccc2)C(=O)c2ccccc2N)cc1COc1ccc(NC(C)=O)cc1", "Potency": "active: 25.1 µM"},
      {"smiles": "COc1ccc(C2Nc3ccccc3C(=O)N2Cc2ccccc2)cc1COc1ccc(NC(=O)c2ccccc2)cc1", "note": "(stereo not given)", "activation": "inactive: 8.86%"},
      {"smiles": "COc1ccc(C(=O)N(Cc2ccccc2)Cc2ccccc2)c(O)c1", "Potency": "active: 25.1 µM"},
      {"smiles": "COc1cc(C2Nc3ccccc3C(=O)N2Cc2ccccc2)ccc1OCc1ccccc1", "note": "(stereo not given)", "activation": "inactive: 1.28%"},
      {"smiles": "O=C(c1ccccc1O)N(Cc1ccccc1)Cc1cccs1", "activation": "inactive: 63.5%"},
      {"smiles": "COc1ccc(C2Nc3ccccc3C(=O)N2Cc2cccnc2)cc1COc1ccc(NC(C)=O)cc1", "note": "(stereo not given)", "Potency": "active: 35.5 µM"},
      {"smiles": "O=C1CC(c2ccccc2)CC2=C1C(c1ccco1)n1nc(C(F)(F)F)nc1N2", "note": "(stereo not given)", "Potency": "inconclusive: 35.5 µM [activator, partial curve]"},
      {"smiles": "CCOc1cc(C2Nc3ccccc3C(=O)N2c2ccccc2OC)ccc1O", "note": "(stereo not given)", "Potency": "inconclusive: 35.5 µM [side channel, falling, full curve, poor fit]"},
      {"smiles": "COc1ccc(C2Nc3ccccc3C(=O)N2Cc2cccc(C(F)(F)F)c2)cc1COc1ccc(NC(C)=O)cc1", "note": "(stereo not given)", "Potency": "active: 4.47 µM"},
      {"smiles": "COc1ccc(C2Nc3ccccc3C(=O)N2Cc2ccccc2)cc1OCc1ccc(NC(C)=O)cc1", "note": "(stereo not given)", "activation": "inactive: 11.9%"},
      {"smiles": "COc1ccc(-c2nc3ccc(NC(=O)CO)cc3c(=O)n2Cc2cccc(Cl)c2)cc1COc1ccc(NC(C)=O)cc1", "Potency": "inconclusive: 22.4 µM [activator, full curve]"},
      {"smiles": "COc1ccc(C(=O)N(Cc2ccccc2)Cc2ccccc2)cc1COc1ccc(NC(C)=O)cc1", "Potency": "inconclusive: 15.8 µM [activator, partial curve]"},
      {"smiles": "COc1ccc(C2Nc3ccccc3C(=O)N2Cc2ccccc2OC)cc1COc1ccc(NC(C)=O)cc1", "note": "(stereo not given)", "activation": "inactive: 17.2%"},
      {"smiles": "COc1ccc(CN(Cc2ccccc2)C(=O)Nc2ccccc2)cc1COc1ccc(NC(C)=O)cc1", "Potency": "inconclusive: 44.7 µM [activator, partial curve, poor fit]"},
      {"smiles": "O=C(CN(Cc1ccccc1Cl)C(=O)Cn1nnc(-c2cccs2)n1)NCC1CCCO1", "note": "(stereo not given)", "activation": "inactive: 0.671% [at 0.00035 µM]"},
      {"smiles": "COC(=O)C1=C(C)OC(N)=C(C#N)C1c1c(C)nn(-c2ccccc2)c1Cl", "note": "(stereo not given)", "Potency": "inconclusive: 35.5 µM [activator, partial curve]"},
      {"smiles": "O=C1CC(c2ccco2)CC2=C1C(c1cccnc1)n1nc(C(F)(F)F)nc1N2", "note": "(stereo not given)", "activation": "inactive: 8.86%"},
      {"smiles": "CC(=O)N1CCCc2cc(S(=O)(=O)N(CC(C)C)CC(C)C)ccc21", "activation": "inactive: -0.0207% [at 0.00035 µM]"},
      {"smiles": "COc1ccc(C2Nc3ccccc3C(=O)N2CCO)cc1COc1ccc(NC(C)=O)cc1", "note": "(stereo not given)", "activation": "inactive: 5.23%"},
      {"smiles": "COc1ccc(C2Nc3ccccc3C(=O)N2Cc2ccccc2)cc1COc1ccc(C#N)cc1", "note": "(stereo not given)", "activation": "inactive: 11.2%"},
      {"smiles": "COc1ccc(C2Nc3ccccc3C(=O)N2Cc2ccccc2C(F)(F)F)cc1COc1ccc(NC(C)=O)cc1", "note": "(stereo not given)", "Potency": "inconclusive: 5.62 µM [activator, full curve, poor fit]"},
      {"smiles": "O=C(c1ccccc1O)N(Cc1ccco1)Cc1cccs1", "Potency": "inconclusive: 39.8 µM [activator, partial curve]"},
      {"smiles": "COc1ccc(C2Nc3ccccc3C(=O)N2Cc2cccc(Cl)c2)cc1COc1ccc(NC(C)=O)cc1", "note": "(stereo not given)", "Potency": "active: 2.82 µM"},
      {"smiles": "NC(=O)c1nsc(C(=O)N(CC(=O)NCc2ccc3c(c2)OCO3)C2CCCCC2)c1N", "Potency": "inconclusive: 31.6 µM [activator, partial curve] and inconclusive: 15.8 µM [activator, full curve]"},
      {"smiles": "COc1ccc(-c2nc3ccccc3c(=O)n2Cc2ccccc2)cc1CNc1ccc(NC(C)=O)cc1", "Potency": "inconclusive: 25.1 µM [activator, full curve]"}
    ]}
  ]
}
